Assay [1] has as its target HA-SUMO2 (Small Ubiquitin-like Modifier 2) (UniProt P61956). In words: co-IP; anti-HA (SUMO2) antibody on protein A/G magnetic beads; lysates of HNE2 and CNE2 cells transfected with HA-SUMO2 vector; GLB+ lysis buffer (150 mM NaCl, 10 mM Tris-HCl pH 7.5, 0.5% Triton X-100, 10 mM EDTA pH 8.0), 4 °C overnight; western blotting with anti-GLUT1 and anti-UBC9.
For assay [2], the target named is Flag-GLUT1 (Glucose transporter type 1) (UniProt P11166). The assay is described as follows: co-IP; anti-Flag (GLUT1) antibody on protein A/G magnetic beads; lysates of HNE2 and CNE2 cells transfected with Flag-GLUT1 vector; GLB+ lysis buffer (150 mM NaCl, 10 mM Tris-HCl pH 7.5, 0.5% Triton X-100, 10 mM EDTA pH 8.0), 4 °C overnight; western blotting with anti-SUMO2 and anti-UBC9.

Protein sequences, listed by entry. Tags and fused reporters are not part of them. Lines headed by an entry give the natural chain unless they say otherwise; changes in a name come on top.
UniProt P61956: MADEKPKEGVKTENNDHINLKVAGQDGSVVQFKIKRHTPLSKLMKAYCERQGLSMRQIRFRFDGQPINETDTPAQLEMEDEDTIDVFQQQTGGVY
UniProt P11166: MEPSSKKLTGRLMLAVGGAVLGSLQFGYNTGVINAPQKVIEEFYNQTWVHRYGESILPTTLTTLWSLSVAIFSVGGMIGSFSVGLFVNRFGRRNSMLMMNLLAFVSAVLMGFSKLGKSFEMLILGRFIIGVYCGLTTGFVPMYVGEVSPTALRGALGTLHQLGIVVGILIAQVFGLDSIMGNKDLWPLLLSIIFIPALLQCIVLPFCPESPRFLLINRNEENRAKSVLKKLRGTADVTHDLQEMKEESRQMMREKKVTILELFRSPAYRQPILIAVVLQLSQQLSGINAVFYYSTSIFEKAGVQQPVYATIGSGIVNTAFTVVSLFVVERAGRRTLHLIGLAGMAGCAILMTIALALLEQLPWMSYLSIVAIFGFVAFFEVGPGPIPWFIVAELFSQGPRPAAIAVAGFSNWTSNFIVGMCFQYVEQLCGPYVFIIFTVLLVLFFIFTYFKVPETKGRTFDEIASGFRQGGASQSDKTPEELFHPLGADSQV

Results are given in words; binding and its absence hold for the method and conditions named. Binding seen in cells or lysates may run through a third protein. Binding can be weak; no strength is given.

For “Glucose transporter type 1 (GLUT1), endogenous (from UniProt P11166 1-492)”, the binding entry in assay [1] was “binds”.
For the substance “Small Ubiquitin-like Modifier 2 (SUMO2), endogenous (from UniProt P61956)”, in assay [2], the binding entry is “binds”.

(Values after article PMC8406723.)
